# Measured data: PubChem BioAssay AID602196 (INSERM, 2012)
# Aim: 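Knock-downs that protect lung cancer cells from cisplatin or sensitise them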
# Cell system: human A549 lung cancer cells
# Reagent: siRNA pair against human genes
# Timing: 48 h transfection before cisplatin; time from cisplatin to read-out not stated
# Treatment: cisplatin at a dose killing half of control-siRNA cells; exact dose and duration not given
# Measurement: 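Cisplatin cell death as a shift from the 50% death seen with control siRNA; siRNAs toxic or growth-blocking alone scored 0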
# Scale: two-siRNA summed score (-2 to +2): higher = both siRNAs protect from cisplatin killing; -2 means both sensitise; mean protection from cisplatin (shift in death) and protection from cisplatin (shift in death), siRNA C: higher = protection from cisplatin killing
# Hit rule: 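siRNAs harmful alone (LDH or WST-1) get 0; others get +1 for less and -1 for more cisplatin killing; genes are active when the two siRNAs give the same sign, summing to ±2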
# Calls: active = both siRNAs shift cisplatin killing the same way; inactive = no consistent shift, or siRNA harmful alone
# Shown is a random part of about 23,000 deposited reagents. Of all reagents, 455 (2%) got an active call. 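Active includes both protection and sensitisation; some change values fall well beyond the stated -50 to +50 range.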 Entries without a mark were called inactive. Further read-outs or replicates are left out here. No sequences are given here. The record does not give: the amount of reagent.
gene,two-siRNA summed score (-2 to +2),mean protection from cisplatin (shift in death) (%),"protection from cisplatin (shift in death), siRNA C (%)"
WASF1 (WASP family member 1),-1,-12,-35.7
RNF41 (ring finger protein 41),0,13.2,10.6
NXF1 (nuclear RNA export factor 1),0,4.4,0.7
PRIM1 (DNA primase subunit 1),-2 (active),-36.4,-47.5
ZNF280B (zinc finger protein 280B),1,5.4,18.5
LDLR (low density lipoprotein receptor),-1,-5.8,5.4
RPL10 (ribosomal protein L10),0,7.2,-7.7
"B4GALNT3 (beta-1,4-N-acetyl-galactosaminyltransferase 3)",0,-12.5,-18.5
MAP3K19 (mitogen-activated protein kinase kinase kinase 19),0,4.6,-7.3
PLEKHG3 (pleckstrin homology and RhoGEF domain containing G3),0,14.1,19.3
LOC388558,0,3.1,14
PTAFR (platelet activating factor receptor),0,-8,-7.4
OR5AK2 (olfactory receptor family 5 subfamily AK member 2),1,13.8,11.7
POTEE (POTE ankyrin domain family member E),0,12.5,18.6
TP53I11 (tumor protein p53 inducible protein 11),0,0.3,-0.5
LOC441040,0,-2.7,0.1
NXPH4 (neurexophilin 4),0,8.7,9.2
SAMD4A (sterile alpha motif domain containing 4A),1,3.8,-3.9
TLR8 (toll like receptor 8),0,13.2,15.4
UBE3C (ubiquitin protein ligase E3C),-2 (active),-23.3,-25.3
ITGA10 (integrin subunit alpha 10),-1,-14.3,-18.7
LOC441303,0,8.9,-0.5
TMEM101 (transmembrane protein 101),0,8.8,-3.7
GUSBP1 (GUSB pseudogene 1),0,-2.3,0.2
HNRNPD (heterogeneous nuclear ribonucleoprotein D),0,-12.1,-27.2
"PCYT1A (phosphate cytidylyltransferase 1A, choline)",0,1.4,4.3
RC3H2 (ring finger and CCCH-type domains 2),-1,-18.6,-29.4
DCAKD (dephospho-CoA kinase domain containing),0,3,0.8
RNF150 (ring finger protein 150),-1,-10.9,7.8
DGKG (diacylglycerol kinase gamma),0,12.4,17.6
GPD1L (glycerol-3-phosphate dehydrogenase 1 like),0,2.5,0
DUSP22 (dual specificity phosphatase 22),0,6.8,8.8
"SUPT16H (SPT16 homolog, facilitates chromatin remodeling subunit)",-1,-7.2,-19.6
FOXP2 (forkhead box P2),-1,-3.5,-13.3
LOC391426,2 (active),17.7,19.9
LOC389212,1,21.6,19
CCM2 (CCM2 scaffold protein),0,7.4,0.5
NDUFB4P12 (NADH:ubiquinone oxidoreductase subunit B4 pseudogene 12),0,17.2,31.9
FAM151B (family with sequence similarity 151 member B),0,-6,-0.7

Targets above whose gene name begins with R or r:
gene,two-siRNA summed score (-2 to +2),mean protection from cisplatin (shift in death) (%),"protection from cisplatin (shift in death), siRNA C (%)"
RNF41 (ring finger protein 41),0,13.2,10.6
RPL10 (ribosomal protein L10),0,7.2,-7.7
RC3H2 (ring finger and CCCH-type domains 2),-1,-18.6,-29.4
RNF150 (ring finger protein 150),-1,-10.9,7.8
